Assay results: patent US20230348369A1 (Cytokinetics, Inc., priority 2020, published 2023)
For at least one compound, name, drawing or mass did not settle the structure.

Amino acid sequences for entries named in this document (tags omitted). A change or cut given only in a name is not applied to a line headed by its entry.
UniProt P43490: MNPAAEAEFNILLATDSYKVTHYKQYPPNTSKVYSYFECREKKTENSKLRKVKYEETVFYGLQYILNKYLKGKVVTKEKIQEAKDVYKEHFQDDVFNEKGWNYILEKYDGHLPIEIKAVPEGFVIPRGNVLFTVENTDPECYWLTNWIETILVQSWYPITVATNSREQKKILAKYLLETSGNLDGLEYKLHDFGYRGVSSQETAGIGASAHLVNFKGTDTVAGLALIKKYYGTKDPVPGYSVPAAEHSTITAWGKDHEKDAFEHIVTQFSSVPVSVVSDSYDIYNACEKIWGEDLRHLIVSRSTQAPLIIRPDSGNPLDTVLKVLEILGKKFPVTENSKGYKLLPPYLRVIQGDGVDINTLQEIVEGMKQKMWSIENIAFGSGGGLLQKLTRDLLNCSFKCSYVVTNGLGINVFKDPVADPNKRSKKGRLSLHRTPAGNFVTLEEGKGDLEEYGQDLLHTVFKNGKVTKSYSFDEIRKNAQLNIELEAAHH

How the values were obtained:
human NAMPT = human NAMPT (Homo sapiens, UniProt P43490); test: Human recombinant enzyme assay (NMN fluorescence biochemical assay, activation of NAMPT); settings: Table A, NMN formation, 60 min
Protocol: Compounds described herein were assayed for their ability to stimulate the synthesis of nicotinamide mononucleotide (NMN) by the enzyme NAMPT. The human recombinant enzyme assay measures the activation of the enzyme activity by compounds using recombinant enzyme and substrates in a buffered cell-free system. The assay conditions closely mimic cellular environments. Dose responses were measured using an assay to detect the formation of nicotinamide mono-nucleotide. All experiments were performed in the 384-well format. […] Enzyme reactions were initiated with the addition of 10 μL of a solution containing the substrates. The final assay conditions were as follows: 6 nM human NAMPT, 2.5 mM ATP, 20 μM PRPP and 150 μM nicotinamide in 50 mM HEPES, pH 7.2, 1 mM DTT, 1 mM CHAPS 50 mM NaCl, 100 mM MgCl2. Following an incubation of 60 min at ambient temperature, 10 μL of 20% acetophenone in DMSO was added, followed by 10 μL of 2 M KOH and 40 μL of formic acid. The plates were read for fluorescence (Excitation/Emission=355 nm/460 nm) using an EnVision plate reader after 40 mins of incubation at ambient temperature.

endogenous NAMPT = molecular target: T1, endogenous NAMPT (Homo sapiens, UniProt P43490); test: Cellular NAD+ modulation assay in neuroblastoma SH-SY5Y cells; type: cell-based; settings: Table B, cellular NAD levels, doxorubicin, 40 hours
T1 construct: stimulate the endogenous NAMPT in a native cellular environment; endogenous in cells; host or cells: SH-SY5Y neuroblastoma cells
Protocol: The compounds described herein were also assayed for their ability to stimulate the endogenous NAMPT in a native cellular environment in the cellular NAD+ modulation assay, which measures the ability of the compound to modulate cellular NAD levels. Increased levels of NAD are expected by compounds that permeate the cells and activate the catalytic activity of the endogenous NAMPT.
Neuroblastoma SH-SY5Y cells were grown in 1:1 mixture of Eagle's Minimum Essential Medium and F12 Medium, along with 10% fetal bovine serum, in a humidified incubator with an atmosphere of 95% air and 5% CO2 at 37° C. The assays were initiated by plating 20 μL of SH-SY5Y cells in culture medium with 0.1% fetal bovine serum, at a density of 5000 cells per well to a 384-well Corning™ BioCoat™ Poly-D-Lysine Multiwell Plates. The plates were incubated in the 37° C. incubators for a period of 5 hours. Compounds in DMSO were added to the plates in a volume of 120 nL using the Labcyte Echo Liquid Handlers. […] 30 μL of a readout-solution containing 0.2 U/mL Diaphorase enzyme, 40 uM resazurin, 10 uM FMN, 0.8 U/mL Alcohol dehydrogenase, 3% ethanol, 0.4 mg/mL bovine serum albumin, 0.2% Triton X-100 in 100 mM Tris-HCl, 30 mM EDTA, pH 8.4. The plates were read for fluorescence (Excitation/Emission=540 nm/590 nm) using an EnVision plate reader after 60 mins of incubation at ambient temperature.

In the case of `CC(C)(C)OC(=O)N1CCC2(CC1)CC2CNC(=O)NCc1ccc(Cl)cc1` (centres unmarked) [Compound 27, tert-butyl 1-((3-(4-chlorobenzyl)ureido)methyl)-6-azaspiro[2.5]octane-6-carboxylate], the “AC1.4 Human” value (human NAMPT) is reported as 4.1 µM and the AC0.3 (endogenous NAMPT) is reported as 1.4 µM.
